{
  "source": "patent US12303591B2",
  "about": "“Tumescent infiltration drug delivery of high subcutaneous drug concentrations with prolonged local and systemic effects and minimal local or systemic toxicity” (priority 2015, dated 2025)",
  "key": {"[1]": {"details": "tumescent lidocaine"}, "[2]": {"details": "in vivo; cited from earlier work"}},
  "data": [
    {"compound": "CCN(CC)CC(=O)Nc1c(C)cccc1C", "note": "[Lidocaine]", "values": [
      {"measurement": "time required for systemic absorption", "setting": "[1]", "value": "≥ 24", "unit": "h"},
      {"measurement": "clinically safe serum lidocaine concentrations", "setting": "[2]", "value": "≤ 5", "unit": "µg/mL"}
    ]}
  ]
}
